The list does not hold the whole screen: it is rich in T/C values a quarter to a half above the control, in often repeated tests (any T/C) and in doses without a T/C. Further doses and runs are listed elsewhere. T/C is the treated group as % of the vehicle group. Some entries give survivors of the animals treated and no T/C: the source holds a T/C of zero for them, seemingly a mark for toxic or unscored doses. Some doses without a T/C left all or most animals alive at the check, yet need not have been tolerated: survival well below the control is almost never listed, so the zero probably covers shortened survival too. Survivors were counted at the toxicity check, usually on the fifth day, unless a day is given; later deaths do not show. Schedules are NCI's codes, read here as Q, the interval in days (D) or hours (H), X, the number of doses. Some entries hold several experiments; the values are given in rising order. Where survival is the endpoint, the PubChem record calls one and a half times the control and up active, and a quarter to a half above the control has no call in these data; cut-offs in other NCI protocols can differ.
Test system: L1210 leukemia ip in BDF1 mice, survival T/C
Assay: NCI In Vivo Anticancer Drug Screen. Data for tumor model L1210 Leukemia (intraperitoneal) in B6D2F1 (BDF1) mice
Settings: T/C endpoint: mean survival time, higher T/C = longer survival
[1] = dose: 200.0 mg/kg/injection, schedule: Q04DX003 (ip), vehicle: saline with Tween-80
[2] = dose: 400.0 mg/kg/injection, schedule: Q04DX003 (ip), vehicle: saline with Tween-80
[3] = dose: 400.0 mg/kg/injection, schedule: Q01DX001 (ip), vehicle: carboxymethylcellulose (CMC)
[4] = dose: 400.0 mg/kg/injection, schedule: Q04DX002 (ip), vehicle: Klucel (hydroxypropylcellulose) (HPC)
[5] = dose: 100.0 mg/kg/injection, schedule: Q04DX003 (ip), vehicle: saline with Tween-80
[6] = dose: 150.0 mg/kg/injection, schedule: Q01DX001 (ip), vehicle: other
[7] = dose: 400.0 mg/kg/injection, schedule: Q04DX003 (ip), vehicle: saline

CNc1ccc(/C=C2\C=Cc3ccccc32)cc1Cl
survivor count (dose: 200.0 mg/kg/injection, schedule: Q01DX001 (ip), vehicle: carboxymethylcellulose (CMC)): 4 of 4

COC(=O)c1ccc(C)cn1
survivor count (dose: 200.0 mg/kg/injection, schedule: Q01DX001 (ip), vehicle: saline): 0 of 4
survivor count (dose: 400.0 mg/kg/injection, schedule: Q01DX001 (ip), vehicle: saline): 0 of 4

CC(=O)c1ccc(NC(N)=S)cc1
survivor count (dose: 160.0 mg/kg/injection, schedule: Q01DX009 (ip), vehicle: saline with Tween-80): 2 of 6
survivor count (dose: 320.0 mg/kg/injection, schedule: Q01DX009 (ip), vehicle: saline with Tween-80): 0 of 6

COC(=O)C(CCCN(C)C)(CCCN(C)C)c1cccc2ccccc12
survivor count [1]: 1 of 6
survivor count [2]: 0 of 6

CCOP(=O)(NCCc1ccccc1)OCC
survivor count [3]: 0 of 4

Oc1ccc2c(c1)CCCC2
survivor count (dose: 150.0 mg/kg/injection, schedule: Q04DX003 (ip), vehicle: saline): 0 of 6
survivor count (dose: 300.0 mg/kg/injection, schedule: Q04DX003 (ip), vehicle: saline): 0 of 6

N#CC1(N2CCC3(CC2)OCCO3)CCCCC1
survivor count (dose: 50.0 mg/kg/injection, schedule: Q01DX009 (ip), vehicle: Klucel (hydroxypropylcellulose) (HPC)): 0 of 6
survivor count (dose: 50.0 mg/kg/injection, schedule: Q04DX003 (ip), vehicle: Klucel (hydroxypropylcellulose) (HPC)): 0 of 6
survivor count (dose: 100.0 mg/kg/injection, schedule: Q04DX002 (ip), vehicle: Klucel (hydroxypropylcellulose) (HPC)): 0 of 3
survivor count (dose: 200.0 mg/kg/injection, schedule: Q04DX002 (ip), vehicle: Klucel (hydroxypropylcellulose) (HPC)): 1 of 3
survivor count [4]: 0 of 3

CCCNC(=O)Oc1ccc(SC)cc1
survivor count (dose: 400.0 mg/kg/injection, schedule: Q01DX001 (ip), vehicle: other): 2 of 6
survivor count (dose: 400.0 mg/kg/injection, schedule: Q01DX009 (ip), vehicle: other): 3 of 3

Cc1c2ccccc2c(CNCCSCCCl)c2ccc3ccccc3c12
survivor count (dose: 100.0 mg/kg/injection, schedule: Q01DX009 (ip), vehicle: saline): 3 of 6
survivor count (dose: 500.0 mg/kg/injection, schedule: Q01DX009 (ip), vehicle: saline): 2 of 6

Clc1nc(Cl)c(Cl)c(C(Cl)(Cl)Cl)n1
survivor count (dose: 100.0 mg/kg/injection, schedule: Q01DX009 (ip), vehicle: saline with Tween-80): 5 of 6
survivor count (dose: 400.0 mg/kg/injection, schedule: Q01DX009 (ip), vehicle: saline with Tween-80): 5 of 6

CCOC(=O)C(CC(=O)O)=C1c2ccccc2-c2ccccc21
survivor count (dose: 400.0 mg/kg/injection, schedule: Q01DX001 (ip), vehicle: Klucel (hydroxypropylcellulose) (HPC)): 1 of 6
survivor count (dose: 400.0 mg/kg/injection, schedule: Q01DX009 (ip), vehicle: Klucel (hydroxypropylcellulose) (HPC)): 0 of 3 and 1 of 6
survivor count [4]: 0 of 3 and 0 of 6

CN1CCN(c2ccc3nnc(Cl)n3n2)CC1
survivor count [5]: 3 of 4
survivor count [1]: 0 of 4

CC(CC(CCC(=O)O)(c1ccccc1)c1ccccc1)N(C)C (stereo unspecified)
survivor count [3]: 1 of 4

O=NN(CCF)C(=O)NC1CCSc2ccccc21 (stereo unspecified)
T/C (dose: 13.0 mg/kg/injection, schedule: Q01DX001 (ip), vehicle: other): 141 % of control
survivor count (dose: 44.0 mg/kg/injection, schedule: Q01DX001 (ip), vehicle: other): 3 of 10
survivor count (dose: 67.0 mg/kg/injection, schedule: Q01DX001 (ip), vehicle: other): 0 of 10
survivor count (dose: 100.0 mg/kg/injection, schedule: Q01DX001 (ip), vehicle: other): 0 of 10
survivor count [6]: 0 of 10

CCC[CH2][Sn]([CH2]CCC)([n]1cncn1)[n]1cncn1
survivor count (dose: 100.0 mg/kg/injection, schedule: Q04DX002 (ip), vehicle: saline with Tween-80): 0 of 3
survivor count [5]: 0 of 6
survivor count (dose: 200.0 mg/kg/injection, schedule: Q04DX002 (ip), vehicle: saline with Tween-80): 0 of 3
survivor count [1]: 0 of 6
survivor count (dose: 400.0 mg/kg/injection, schedule: Q04DX002 (ip), vehicle: saline with Tween-80): 0 of 3
survivor count [2]: 0 of 6

CC[n+]1c(C=Nc2ccc(N(C)C)cc2)sc2ccccc21
survivor count (dose: 25.0 mg/kg/injection, schedule: Q04DX003 (ip), vehicle: carboxymethylcellulose (CMC)): 1 of 6
survivor count (dose: 50.0 mg/kg/injection, schedule: Q04DX002 (ip), vehicle: carboxymethylcellulose (CMC)): 0 of 3 and 0 of 6
survivor count (dose: 50.0 mg/kg/injection, schedule: Q04DX003 (ip), vehicle: carboxymethylcellulose (CMC)): 0 of 6
survivor count (dose: 100.0 mg/kg/injection, schedule: Q04DX002 (ip), vehicle: carboxymethylcellulose (CMC)): 0 of 6
survivor count (dose: 200.0 mg/kg/injection, schedule: Q04DX002 (ip), vehicle: carboxymethylcellulose (CMC)): 0 of 6
survivor count (dose: 400.0 mg/kg/injection, schedule: Q04DX002 (ip), vehicle: carboxymethylcellulose (CMC)): 0 of 6

COC(=O)C(Br)CBr (stereo unspecified)
survivor count (dose: 200.0 mg/kg/injection, schedule: Q01DX009 (ip), vehicle: saline): 2 of 6
survivor count (dose: 400.0 mg/kg/injection, schedule: Q01DX009 (ip), vehicle: saline): 0 of 6
survivor count [7]: 3 of 6

COc1cccc2c1C(=O)c1c(O)c3c(c(O)c1C2=O)C[C@@](O)(C(=O)COC(=O)c1cccnc1)C[C@@H]3OC1CC(N)C(O)C(C)O1 (stereo partly specified)
T/C (dose: 1.1 mg/kg/injection, schedule: Q01DX009 (ip), vehicle: saline): 135 % of control

CC(C)CNNCC(C)C
survivor count [6]: 3 of 6
survivor count (dose: 300.0 mg/kg/injection, schedule: Q01DX001 (ip), vehicle: other): 0 of 6

COC(C)C(Br)C(=O)O (stereo unspecified)
survivor count [7]: 4 of 6

Reference: PubChem BioAssay AID248 (DTP/NCI, 2004)
